# Library screen at single concentrations

Each number is a percent effect as filed.
How 0% and 100% were set is not recorded. Most values in the screen are low, and negative values occur.
Compounds were drawn at random from those tested, without regard to their results.

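Whole-parasite assay of Trypanosoma brucei over 72 hours; the read-out is not stated. Compounds at 30 µM. The record gives no direction; compounds that gave an IC50 in retests scored well above the rest, so higher reads as stronger inhibition. Values scatter widely below zero; nearly all retest evidence comes from the higher of the two concentrations used. Of about 64,000 compounds tested this way, about 940 (1.5%) reached 50% or more in at least one test.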

SMILES	percent effect
Cc1ccc(N2CCc3sc(C(=O)NCCN4CCCC4)cc32)nn1	54.03
CC(C)c1ccc(OCC(=O)N(C)C)cc1	-36.51
Cc1noc(C)c1CN1CCCC2(C1)CN(c1nncs1)CCO2 (centres unmarked)	-7.063
CCC[C@@H]1CN(c2ncnc3sccc23)C[C@H]1C(=O)O	-8.316
[H][C@]12CC(COCc3ccccn3)C[C@]1([H])N(C(=O)c1ccc[nH]1)CCO2 (some centres unmarked)	-84.3
O=C(NCc1nnc2n1CCC2)c1cn(-c2cccc(Br)c2)nn1	-83.65
CC(NC(=O)CSCC#N)c1cccc(Cl)c1 (centres unmarked)	9.332
O=S(=O)(c1cccnc1)N1CCN(CC(O)c2cccs2)CC1 (centres unmarked)	13.32
[H][C@]12CN(C(=O)c3ccc(C)c(Cl)c3)CC[C@@]1(O)CCN(C(=O)N(C)C)C2	-41.5
COc1ccc(F)cc1S(=O)(=O)NCC(O)c1sccc1C (centres unmarked)	16.78
Cc1cc(C)cc(CN2CCN(Cc3ccc4nonc4c3)CC2=O)c1	-16.25
[H][C@]12CC[C@]([H])(CN(Cc3cccnc3)C1)N(C(=O)CC1CCCCC1)C2	1.133
Cc1ccccc1C(C#N)NC(=O)c1cccc2c1OCCO2 (centres unmarked)	-13.75
Fc1ccccc1OCCc1cc(C2CCNC2)n[nH]1 (centres unmarked)	-12.52
Cc1ccc(CNc2ccccc2-n2ccc(C)n2)nc1	-65.21
Cc1nc(CN(Cc2ccccc2F)C2CCC2)no1	-19.4
O=C(NC1CCCC1)c1cc2c(s1)CCN2C(=O)c1ccccc1	24.15
OCC(O)CN1CCc2onc(-c3ccc(C(F)(F)F)cc3)c2C1 (centres unmarked)	-1.985
Cc1cnn(CC2CCCN2C(=O)Cc2c(C)noc2C)c1 (centres unmarked)	-0.071
CC(C)N(C)Cc1nnc2n1CCCN(C(=O)c1ccco1)C2	16.86
Cc1cccc(C2(CNC(=O)C(C)NC(N)=O)CCCC2)c1 (centres unmarked)	10.74
O=C(O)C(F)(F)F.[H][C@@]12CN(C(=O)c3ccco3)C[C@]1([H])OCCN2c1ncccn1	-11.98
CN(C)C(=O)N1CCC(C(=O)N2CCOC(CC3CCCCC3)C2)CC1 (centres unmarked)	16.23
O=C(O)C(F)(F)F.[H][C@@]12CCN(Cc3cn(C)c4ccccc34)[C@]1([H])CC[C@@H](C(=O)NC(C)C)O2	-4.037
COc1cccc(NC(=O)Cn2cc(-c3ccccc3)ncc2=O)c1	-0.5654
CCN(CC)C(CNCc1ccc(C)o1)c1ccco1 (centres unmarked)	17.81
O=C(C1CCN(S(=O)(=O)N2CCCC2)CC1)N1CCC2(CC1)OCCO2	-8.67
CCC1CN(CC(=O)N2CCN(C(C)=O)CC2)CCN1CCOC (centres unmarked)	-8.369
CC1c2cccn2CCN1C(=O)CCc1nc(-c2ccccc2)no1 (centres unmarked)	1.634
CCCNC(=O)c1cncc(CC2CCCN(C)C2)c1 (centres unmarked)	7.969
O=C(O)C(F)(F)F.O=C(O)C(F)(F)F.[H][C@@]12CCN(CCN3CCCCC3)C[C@]1(C(=O)N1CCOCC1)CCO2	24.9
CCN(CC)C(=O)Cn1cc(-c2nc(C(C)C)no2)nn1	-47.67
Cl.N[C@@H](Cc1ccccc1)c1nnc(S(=O)(=O)Cc2cccc(Cl)c2)o1	-25.85
Cc1ccc(-c2cn3c(n2)CO[C@@H](CNCc2nccn2C)C3)cc1	4.369
CCn1ccnc1CN1CCCN(C(=O)COC2CCCCC2)CC1	-6.98
Cc1cccnc1NCCNC(=O)[C@H]1CNC[C@@H](C(=O)N2CCCC2)C1	-9.454
O=C(c1cc2ccccc2[nH]1)N1CCC(Nc2cccnn2)CC1	-25.8
Cc1ccccc1CC(=O)NCCNc1nccc(C(F)(F)F)n1	-20.25
Cc1cc(N(C)Cc2c(C)noc2C)n2nc(C)c(C)c2n1	-15.16
CC(NC(=O)N1CCN(c2ncccn2)CC1)c1ccc(C#N)cc1 (centres unmarked)	-68.87
Cc1nc(-c2cc(C(=O)O)co2)cs1	-12.26
CC(C)NC(=O)Nc1nc2c(s1)CN(C(=O)NCc1cccs1)CC2	10.1
Cn1cnc2c1CCN(Cc1csc(-c3ccccc3)n1)C2	-6.107
CC(=O)N1CCC2(C=C(C(=O)NC3CC3)c3ccccc32)CC1	3.653
CC(NC(=O)N(C)CCCOc1ccc(F)cc1)c1nncn1C (centres unmarked)	-12.49
O=C(Nc1cccc(F)c1)C1CCN(Cc2noc(C3CC3)n2)CC1	6.248
COc1ccccc1OC1CN(C(=O)c2ccc(C(C)=O)s2)C1	-26.21
N#Cc1c(SCCN2CCOCC2)sc2c(O)cc(O)nc12	-20.45
CCS(=O)(=O)N1CCC2(CCN(C(=O)c3cccs3)CC2)CC1	-3.611
CN(C)S(=O)(=O)c1ccc(CN2CCCC2c2ccccc2)o1 (centres unmarked)	-15.65
c1cnc(N2CCC(c3cc4cccnc4[nH]3)CC2)nc1	-1.455
CCN(Cc1ccc2c(c1)OCO2)C(=O)NC(C)Cn1cccn1 (centres unmarked)	-3.712
Cc1ccc(C(=O)NCC(O)c2ccc(Cl)s2)c(=O)[nH]1 (centres unmarked)	-52.72
COc1cccc2c1OCC(C(=O)NCc1ncc3c(n1)CCC3)C2 (centres unmarked)	-56.46
Oc1ccc(N(CCc2ccccc2)CCn2cncn2)cc1	3.34
COc1cc(CN2CC[C@H](NC(C)=O)[C@@H](O)CC2)ccc1F	-17.22
CCc1nnsc1C(=O)N1CCCC(n2ccnc2C(C)C)C1 (centres unmarked)	-10.58
O=C(NS(=O)(=O)Cc1ccc(F)cc1)C1CCc2ccccc21 (centres unmarked)	-4.818
CCN1C(=O)CCCC12CCCN(C(=O)c1occc1C)C2 (centres unmarked)	5.363
CN1N=C(C(=O)N2CCCC(CCc3ccccc3)C2)CCC1=O (centres unmarked)	1.649
Cc1ccc(CNC(C)c2nnc3n2CCCC3)o1 (centres unmarked)	-0.8589
CCOC(=O)c1nc(CC(=O)Nc2ccc3cc[nH]c3c2)no1	3.957
CCN(CC)CCN(CC(C)C)c1cc(C(F)(F)F)nc2ncnn12	-52.25
COc1cc(NC(=O)N(C)C(C2CC2)C2CC2)ncn1	-29.62
CC(C)Nc1cccc(CNC(=O)N2CCCC2)c1	-1.477
CC[C@@]1(O)CCN(c2ncc(Cl)cc2C(F)(F)F)C[C@H]1O	-52.74
O=C1N(Cc2cccc(F)c2F)CCCC1(O)CNC1CCCC1 (centres unmarked)	22.21
COCCN1CCCC(c2cncc(Oc3ccccc3OC)n2)C1 (centres unmarked)	-16.14
Cc1nccn1[C@@H]1CC[C@@H](N(C)S(=O)(=O)c2ccc(F)cc2)[C@H]1O	-2.611
Cl.[H][C@@]12CCCCN[C@]1([H])[C@@H](c1ccccc1)CCN2S(=O)(=O)N1CCCC1	-20.77
COCC(=O)N1CCN(C)CC(Cc2cc(N(C)C)ncn2)C1 (centres unmarked)	-16.71
O=C1OC2(CCNCC2)CN1CC(=O)N1CCC1c1cccs1 (centres unmarked)	-31.67
CC(C)NC(=O)c1ccc2c(c1)C1(CCN(C)CC1)C(=O)N2.O=C(O)C(F)(F)F	-29.67
Cn1cnnc1SCc1cc2c(cc1Br)OCO2	-59.89
O=C(CCN1C(=O)CCC1=O)Nc1cnn(-c2ccccc2Cl)c1	-41.29
Cc1cnc(CN2CCOC(CNc3cccnn3)C2)cn1 (centres unmarked)	24.44
Cc1nc(N2CCOCC2)nc2c1CCN(C(=O)N1CCCC1)CC2	-46.88
O=C(O)C(F)(F)F.O=C(O)C(F)(F)F.[H][C@@]12CN(CC)C[C@]1([H])[C@H](OC)CCN2S(=O)(=O)c1cccnc1	-20.4
Cc1ncsc1CCN(C)Cc1cc2n(n1)CCN(S(C)(=O)=O)C2	-9.077
CCn1ncc2c(C(F)(F)F)cc(-c3cnn(C)c3)nc21	14.55
O=C(c1ccco1)N1CCC2(CCC(=O)N2Cc2ccccc2)CC1	31.03
Cc1cccc(NC(=O)CN(C)C(=O)c2ccc(-n3cccc3)nc2)n1	-37.09
O=C(NCC(O)CN1CCc2ccccc2C1)Nc1cccnc1 (centres unmarked)	-11.42
Cc1cccc(NC2CCN(C(=O)Nc3cc(F)cc(F)c3)CC2)n1	8.301
CCc1nccn1CCCNC(=O)CN1CCN(c2ncccn2)CC1	-12.24
COC(C)c1cccc(NCc2cccc(O)c2)c1 (centres unmarked)	-5.019
CC(C)N(CCNC(=O)c1ccc(S(=O)(=O)NC2CC2)cc1)C(C)C	-30.8
CN(Cc1cccs1)C(=O)CN1CCCCC1Cn1cncn1 (centres unmarked)	-21.09
N#Cc1ccc(C(=O)O)nc1/C=C/c1cccc(Br)c1	3.395
CN(CCNc1ncc2c(n1)CCN2c1ccccc1)S(C)(=O)=O	-6.111
COc1ccc(OC)c(CN2CCCCCC2c2cccs2)c1 (centres unmarked)	-2.856
CCN(Cc1cccc(C(=O)Nc2c(C)cnn2C)c1)[C@H]1COC[C@@H]1O	3.597

Some entries from above, unchanged:

| SMILES | percent effect |
|---|---|
| `Cc1ccc(-c2cn3c(n2)CO[C@@H](CNCc2nccn2C)C3)cc1` | 4.369 |
| `COc1ccc(OC)c(CN2CCCCCC2c2cccs2)c1` (centres unmarked) | -2.856 |
| `CCS(=O)(=O)N1CCC2(CCN(C(=O)c3cccs3)CC2)CC1` | -3.611 |
| `CCn1ccnc1CN1CCCN(C(=O)COC2CCCCC2)CC1` | -6.98 |
| `CCC[C@@H]1CN(c2ncnc3sccc23)C[C@H]1C(=O)O` | -8.316 |
| `CN(C)S(=O)(=O)c1ccc(CN2CCCC2c2ccccc2)o1` (centres unmarked) | -15.65 |
| `Cc1nc(-c2cc(C(=O)O)co2)cs1` | -12.26 |
| `CCN(CC)C(CNCc1ccc(C)o1)c1ccco1` (centres unmarked) | 17.81 |

Measurements from “University of Dundee, Small-Polar-MMV Screening Library” (2021), ChEMBL document CHEMBL3988442.